PubChem BioAssay AID1259405 | NCATS – 2018

Assay: 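Mouse-designed siRNAs used to find CHO productivity engineering targets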 (primary screen)
Cells: Chinese hamster CHO-K1 ovary cells with stable secreted eGFP expression
Knock-down reagent: single siRNA against mouse genes, 0.8 pmol siRNA per well (2 µl of 400 nM stock)
Timing: 3 days
Read-out: 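Percent of the per-plate non-targeting control median for intracellular GFP per well by laser scanning cytometry and for cell viability by ATP luminescence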
Direction: GFP, % of control: higher = more GFP per well, higher productivity; viability (ATP), % of control: higher = more viable cells (more ATP)
Active means: 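Called active when intracellular GFP, relative to negative control, is at or above 120%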
In all, the deposit lists about 50,000 reagents; this is a part drawn at random. About 4,000 of them (8%) were called active. 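Mouse siRNA library applied to hamster cells; one well for each siRNA.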 A number with no mark means an inactive call. Reagents against one gene are numbered here.

What did the screen give for Chst5 (carbohydrate sulfotransferase 5) #1?
GFP, % of control: 91.9; viability (ATP), % of control: 75.5

For Chst5 (carbohydrate sulfotransferase 5) #2, what does the deposit list?
GFP, % of control: 40.4; viability (ATP), % of control: 71.9

For Chst5 (carbohydrate sulfotransferase 5) #3, what does the deposit list?
GFP, % of control: 100; viability (ATP), % of control: 116

With F8 (coagulation factor VIII) #1, what was measured?
GFP, % of control: 128 (active); viability (ATP), % of control: 95.2

What is on record for F8 (coagulation factor VIII) #2?
GFP, % of control: 29.7; viability (ATP), % of control: 37.5

What is on record for F8 (coagulation factor VIII) #3?
GFP, % of control: 86.1; viability (ATP), % of control: 77.6

With Insm2 (insulinoma-associated 2) #1, how do the results read?
GFP, % of control: 55.6; viability (ATP), % of control: 38.4

For Insm2 (insulinoma-associated 2) #2, what does the deposit list?
GFP, % of control: 116; viability (ATP), % of control: 68.9

Which result is listed for Insm2 (insulinoma-associated 2) #3?
GFP, % of control: 120; viability (ATP), % of control: 87.8

For Or51a5 (olfactory receptor family 51 subfamily A member 5) #1, what does the deposit list?
GFP, % of control: 131 (active); viability (ATP), % of control: 123

How did the screen score Or51a5 (olfactory receptor family 51 subfamily A member 5) #2?
GFP, % of control: 84.2; viability (ATP), % of control: 87.8

For Or51a5 (olfactory receptor family 51 subfamily A member 5) #3, how do the results read?
GFP, % of control: 79.9; viability (ATP), % of control: 57.3

How did the screen score Rack1 (receptor for activated C kinase 1) #1?
GFP, % of control: 54.5; viability (ATP), % of control: 66.7

For Rack1 (receptor for activated C kinase 1) #2, how do the results read?
GFP, % of control: 126 (active); viability (ATP), % of control: 90.1

With Rack1 (receptor for activated C kinase 1) #3, what does the deposit list?
GFP, % of control: 76.6; viability (ATP), % of control: 69.2

For Ros1 (Ros1 proto-oncogene, receptor tyrosine kinase), what does the deposit list?
GFP, % of control: 86.2; viability (ATP), % of control: 89.9

What is on record for Tbce (tubulin-specific chaperone E) #1?
GFP, % of control: 68.3; viability (ATP), % of control: 49.6

For Tbce (tubulin-specific chaperone E) #2, how do the results read?
GFP, % of control: 31.2; viability (ATP), % of control: 59.9

Which result is listed for Tbce (tubulin-specific chaperone E) #3?
GFP, % of control: 25.1; viability (ATP), % of control: 67.6

Which result is listed for Adgrl1 (adhesion G protein-coupled receptor L1) #1?
GFP, % of control: 80.8; viability (ATP), % of control: 62.5

What is on record for Adgrl1 (adhesion G protein-coupled receptor L1) #2?
GFP, % of control: 78.1; viability (ATP), % of control: 90.4

How did the screen score Adgrl1 (adhesion G protein-coupled receptor L1) #3?
GFP, % of control: 66.3; viability (ATP), % of control: 72.1

Sorted by “viability (ATP), % of control” (highest first): 2 of the entries above
F8 (coagulation factor VIII) #3: GFP, % of control = 86.1; viability (ATP), % of control = 77.6
Insm2 (insulinoma-associated 2) #1: GFP, % of control = 55.6; viability (ATP), % of control = 38.4

The list goes on:
What did the screen give for Lipe (lipase E, hormone sensitive type) #1?
GFP, % of control: 128 (active); viability (ATP), % of control: 91.8

Which result is listed for Lipe (lipase E, hormone sensitive type) #2?
GFP, % of control: 43.9; viability (ATP), % of control: 65.7

What did the screen give for Lipe (lipase E, hormone sensitive type) #3?
GFP, % of control: 49.8; viability (ATP), % of control: 50.6

How did the screen score Or2b2 (olfactory receptor family 2 subfamily B member 2) #1?
GFP, % of control: 53.5; viability (ATP), % of control: 85.3

For Or2b2 (olfactory receptor family 2 subfamily B member 2) #2, what does the deposit list?
GFP, % of control: 66.7; viability (ATP), % of control: 61

With Or2b2 (olfactory receptor family 2 subfamily B member 2) #3, what was measured?
GFP, % of control: 48.6; viability (ATP), % of control: 101

With S100a9 (S100 calcium binding protein A9 (calgranulin B)) #1, how do the results read?
GFP, % of control: 132 (active); viability (ATP), % of control: 123

Which result is listed for S100a9 (S100 calcium binding protein A9 (calgranulin B)) #2?
GFP, % of control: 87.9; viability (ATP), % of control: 73.3

For Meox2 (mesenchyme homeobox 2) #1, what was measured?
GFP, % of control: 108; viability (ATP), % of control: 125

For Meox2 (mesenchyme homeobox 2) #2, what was measured?
GFP, % of control: 62.6; viability (ATP), % of control: 87.5

Which result is listed for Meox2 (mesenchyme homeobox 2) #3?
GFP, % of control: 60; viability (ATP), % of control: 102

With Sepsecs #1, what was measured?
GFP, % of control: 48.7; viability (ATP), % of control: 59.3

How did the screen score Sepsecs #2?
GFP, % of control: 68; viability (ATP), % of control: 59.4

How did the screen score Sepsecs #3?
GFP, % of control: 85.9; viability (ATP), % of control: 72

For Pi15 (peptidase inhibitor 15) #1, how do the results read?
GFP, % of control: 83.5; viability (ATP), % of control: 80.2

For Pi15 (peptidase inhibitor 15) #2, what does the deposit list?
GFP, % of control: 92.3; viability (ATP), % of control: 56.4

With Pi15 (peptidase inhibitor 15) #3, what was measured?
GFP, % of control: 117; viability (ATP), % of control: 103

For Stk10 (serine/threonine kinase 10), what was measured?
GFP, % of control: 67.8; viability (ATP), % of control: 47.8
